Assay results from PubChem BioAssay AID1259415 (National Center for Advancing Translational Sciences (NCATS), 2018).
“And” between values parts separate entries of the source, which are not always exact repeats. Equal values may be shown once. Among all 410,000 compounds or so, about 18,000 (4.4%) were called active. This list was built around the results that the source calls inconclusive (neither active nor inactive); the mix of calls is not that of the screen. Rule as the data show it: active = activity change below about -60%; inconclusive = no clear call, values can overlap the other calls; inactive = above about -39%.
% is scaled to controls: 0 for no effect and ±100 for the full control effect.

Assay: qHTS Assay for inhibitors of the human cytomegalovirus (HCMV)
Conditions: HFF cells, HCMV-luciferase reporter, 72 h; at 57.5 µM; stronger effect = lower value
Outline: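 HFF cells seeded 16 h at 37C, treated with compounds, infected with luciferase-reporter HCMV at MOI 1 PFU/cell; luciferase read at 72 h post infection, normalized to buffer-only and Salinomycin controls.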
With `O=C(CN1C(=O)c2cccc3cccc1c23)Nc1ccccc1C(=O)NCc1ccco1` the activity change, negative = inhibition was active: -61.1%.
With `Cc1cc(C)c2c(-n3cccc3)c(C(=O)NCCc3ccccc3)sc2n1` the activity change, negative = inhibition was inconclusive: -46.7%.
In the case of `Cc1cccc(C)c1-n1nnnc1C(=O)c1cccnc1`, the activity change, negative = inhibition is reported as inactive: 21.9%.
For `COc1ccccc1NC(=O)CN1C(=O)COc2ccc(C)cc21`, the activity change, negative = inhibition was inconclusive: -53.1%.
With `CCOC(=O)N1CCN(c2nc(N(c3ccccc3)c3ccccc3)nc(-n3ccnc3)n2)CC1` the activity change, negative = inhibition was inconclusive: 0%.
In the case of `O=C1CSC(c2cccc([N+](=O)[O-])c2)N1CCN1CCCCC1` (stereo not given), the activity change, negative = inhibition is reported as inconclusive: -40.8%.
In the case of `COc1ccc(CSc2nc3ccccc3[nH]2)cc1`, the activity change, negative = inhibition is reported as inconclusive: -47.2%.
For `COC(=O)C1=C(c2ccccc2)c2ccccc2S(=O)(=O)N1CC(=O)Nc1ccccc1C(F)(F)F`, the activity change, negative = inhibition was inactive: -5.56%.
With `CCOc1ccc(NC(=O)N2CCCC2C(=O)NCC2CCCO2)cc1` (stereo not given) the activity change, negative = inhibition was inconclusive: -53.6%.
For `Cc1ccc(CN2CCNC(=O)C2CC(=O)NCCCn2ncc3ccccc32)o1` (stereo not given), the activity change, negative = inhibition was inconclusive: -41.3%.
For `CC(C)c1cc(C(=O)Nc2cc(Br)ccc2O)no1`, the activity change, negative = inhibition was inactive: 8.77%.
With `Cc1c(NS(=O)(=O)c2ccccc2)ccc([N+](=O)[O-])c1Cl` the activity change, negative = inhibition was active: -64.7%.
For `CCOC(=O)C1(Cc2ccc(OC)cc2)CCN(C(=O)c2sc(C)nc2C)CC1`, the activity change, negative = inhibition was inconclusive: -47.8%.
For `O=C(CN1CCCCCC1)Nc1cc([N+](=O)[O-])ccc1Cl`, the activity change, negative = inhibition was inconclusive: -51%.
In the case of `Cc1cc(Cl)ccc1NC(=O)CN1C(=O)C(=O)c2ccccc21`, the activity change, negative = inhibition is reported as inactive: 18.3%.
With `CCCCn1c(SCC(=O)OC)nc2c1c(=O)n(C)c(=O)n2C` the activity change, negative = inhibition was inactive: 18.1%.
With `CCCc1ccc(NC(=O)C2CCN(c3cnccn3)CC2)cc1` the activity change, negative = inhibition was inconclusive: -45.5%.
For `CCCOc1ccc(C(=O)C(CN2CCCC2)c2ccccc2)cc1` (stereo not given), the activity change, negative = inhibition was active: -81.8%.
In the case of `Cc1nn(Cc2ccccc2)c(C)c1C(=O)OCC(=O)c1cc(C)n(C2CC2)c1C`, the activity change, negative = inhibition is reported as inconclusive: -48%.
With `O=C(Nc1nnc(SCc2ccc(F)cc2)s1)c1ccccn1` the activity change, negative = inhibition was active: -98.5%.
With `CC1CC(C(F)F)n2nc(C(=O)Nc3sc4c(c3C#N)CCC(C(C)(C)C)C4)nc2N1` (stereo not given) the activity change, negative = inhibition was inconclusive: -46.9%.
With `CCCN(CCC)S(=O)(=O)c1ccc(C(=O)Nc2nnc(-c3cccc(OC)c3)o2)cc1` the activity change, negative = inhibition was inconclusive: -58.1%.
With `COc1ccc(C(=O)N=c2sccn2C)cc1` the activity change, negative = inhibition was inactive: -15.1%.
With `O=C(CN(Cc1ccccc1Cl)C(=O)c1csnn1)NCc1ccc2c(c1)OCO2` the activity change, negative = inhibition was inactive: 9.28%.
In the case of `C[C@H](O)[C@@H]1C(=O)N2CCc3c([nH]c4ccccc34)[C@@H]2C[C@@H]1N(C)C(=O)c1ccco1`, the activity change, negative = inhibition is reported as inactive: 22.6%.
For `Cc1cc(C)cc(NC(=O)CCN2CC(C)OC(C)C2)c1` (stereo not given), the activity change, negative = inhibition was inconclusive: -48.2%.
In the case of `Cc1cc(NC(=O)C(C)SCC(=O)N(Cc2ccccc2)c2ccccc2)no1` (stereo not given), the activity change, negative = inhibition is reported as inconclusive: -59.6%.
In the case of `COc1ccc(-c2csc(N3C(=O)CNC3=S)n2)cc1`, the activity change, negative = inhibition is reported as inactive: 2.54%.
For `CS(=O)(=O)Nc1cccc(C(=O)CC2(O)C(=O)Nc3ccccc32)c1` (stereo not given), the activity change, negative = inhibition was active: -67.7%.
With `CC(=O)Nc1ccc(-c2ccnc3c2CC(C)(C(=O)Nc2cccc(C(F)(F)F)c2)O3)cc1` (stereo not given) the activity change, negative = inhibition was inconclusive: -52.5%.
In the case of `O=C(Nc1ccc(N2CCN(C(=O)c3ccccc3F)CC2)cc1)c1ncn[nH]1`, the activity change, negative = inhibition is reported as inconclusive: -51.2%.
For `CCOc1ccc(/C=N/O)cc1`, the activity change, negative = inhibition was inactive: 24.1%.
For `CC(C)c1ccc(-c2csc3ncnc(N4CCN(C)CC4)c23)cc1`, the activity change, negative = inhibition was inconclusive: -57%.
For `Cc1c(C=O)c2ccccc2n1CC(=O)NCc1ccccc1`, the activity change, negative = inhibition was inconclusive: -42.5%.
In the case of `CCCCc1nc(SCc2ccc([N+](=O)[O-])cc2)n[nH]1`, the activity change, negative = inhibition is reported as inconclusive: -44.1%.
With `CCOc1cc(/C=C(\C#N)c2nc(-c3cccs3)c(NC(C)=O)s2)ccc1O` the activity change, negative = inhibition was inconclusive: -56.3%.
With `COc1cccc(C=NNC(=O)c2ccncc2)c1O` the activity change, negative = inhibition was inactive: 6.03%.
For `COCCNC(=O)C1(C)CCCN(C(=O)c2ccccc2F)C1` (stereo not given), the activity change, negative = inhibition was inconclusive: -48.2%.
In the case of `CC(C)N1C(=O)N(c2ccc(Cl)cc2)C(C)(O)CC1(C)C` (stereo not given), the activity change, negative = inhibition is reported as inconclusive: -59%.
In the case of `CCNC(=O)C1(C)CCN(Cc2cccc(C(F)(F)F)c2)C1` (stereo not given), the activity change, negative = inhibition is reported as inconclusive: -43.9%.
In the case of `COc1ccc(/C=C(/NC(=O)c2ccc(Br)cc2)C(=O)Nc2cccc(C(=O)O)c2)cc1`, the activity change, negative = inhibition is reported as inactive: -22.3%.
With `C#CCOCCOCCOCCNc1nc(N2CCN(C(=O)[C@H](CC(N)=O)n3cc(C(N)[C@@H](C)CC)nn3)CC2)nc(N2CCN(C(=O)[C@H](CCC(=O)O)n3cc([C@@H](N)CCCCN)nn3)CC2)n1` (stereo not given in full) the activity change, negative = inhibition was inactive: 22.3%.
With `Cc1cccc(NC(=O)C(C)Sc2nc3ccccc3c(=O)n2CCCN2CCOCC2)c1` (stereo not given) the activity change, negative = inhibition was inconclusive: -44.5%.
In the case of `Cc1nn(CCCC(=O)NCc2ccccc2)c(=O)c2nn(-c3ccccc3)c(C)c12`, the activity change, negative = inhibition is reported as inactive: -1.24% and inconclusive: -46.5%.
In the case of `Cn1nc(C(=O)NCc2ccccc2)cc1C(=O)NCc1ccccc1`, the activity change, negative = inhibition is reported as inactive: 90%.
With `COc1cccc(CN2CC(C(=O)NCc3ccc(C)o3)CCC2=O)c1` (stereo not given) the activity change, negative = inhibition was inactive: -26%.
For `CC(=O)Oc1ccc(C2=NN(c3ccccc3)C(c3ccccc3)C2)cc1` (stereo not given), the activity change, negative = inhibition was inactive: 153%.
With `O=C(OCC(=O)N1CCc2ccccc21)c1ccc(Cl)nc1` the activity change, negative = inhibition was inactive: 51.9%.
In the case of `Cc1ccccc1OCC(=O)NC(=S)Nc1cccc2cc(O)ccc12`, the activity change, negative = inhibition is reported as inconclusive: -54%.
For `Cc1cc(C)n2nc(SCc3nnc(SCc4ccccc4Cl)s3)nc2n1`, the activity change, negative = inhibition was inconclusive: -40%.
With `NC(=O)CC(NC(=O)Cc1cccc2ccccc12)c1ccc(NCCc2ccc(F)cc2)c([N+](=O)[O-])c1` (stereo not given) the activity change, negative = inhibition was active: -67.5%.
With `COc1ccccc1/C=N/NC(=O)C(=O)Nc1ccccc1OC(F)(F)C(F)F` the activity change, negative = inhibition was inconclusive: -43%.
For `CCOc1ccccc1NC(=O)CSc1nccn1-c1ccc(Cl)cc1`, the activity change, negative = inhibition was active: -72.4%.
For `CC(NC(=O)COc1ccccc1)C(c1ccccc1)N1CCN(C)CC1` (stereo not given), the activity change, negative = inhibition was inconclusive: -49.8%.
For `COc1ccccc1/C=C1\SC(=O)N(CCC(=O)N2CCCCC2CCO)C1=O` (stereo not given), the activity change, negative = inhibition was inactive: -22.7%.
For `COc1ccccc1N(CC(=O)Nc1ccc(C)cc1Cl)S(=O)(=O)c1cccs1`, the activity change, negative = inhibition was inconclusive: -40.9%.
In the case of `COc1ccc(NC(=O)CN(C)C(=O)c2cccc(S(=O)(=O)N3CCN(c4ccccc4)CC3)c2)cc1`, the activity change, negative = inhibition is reported as inconclusive: -47.4%.
With `COc1ccc(CNC(=O)c2c(F)c(F)c(F)c(F)c2F)cc1` the activity change, negative = inhibition was active: -102%.
With `Cc1c(Cl)cccc1NC(=O)CCn1c(=O)c2cccn2c2ccccc21` the activity change, negative = inhibition was inconclusive: -43.7%.
In the case of `O=C(O)CCc1nc2ccccc2n(CCc2ccccc2)c1=O`, the activity change, negative = inhibition is reported as inconclusive: -45.4%.
With `O=C(CSc1cn(CC(=O)N2CCCCC2)c2ccccc12)Nc1ccccc1F` the activity change, negative = inhibition was inconclusive: -43.1%.
With `O=C(CCOc1ccccc1)Nc1ccc([N+](=O)[O-])cc1` the activity change, negative = inhibition was inactive: -19.8%.
With `CCN1C(=O)[C@@H]2[C@@H](c3ccc(-c4ccccc4)cc3)N3CCC[C@@]3(C(=O)OC)[C@@H]2C1=O` the activity change, negative = inhibition was inactive: 0.335%.
In the case of `COc1ccc(C(=O)c2cn(Cc3ccc(C)cc3)c3cc4c(cc3c2=O)OCO4)cc1`, the activity change, negative = inhibition is reported as active: -65.3%.
In the case of `CCOC(=O)C(=CNc1cc(C)ccc1-n1cccc1)C(=O)OCC`, the activity change, negative = inhibition is reported as inactive: -27.7%.
In the case of `O=C(NC1CCCc2ccccc21)C1CCN(S(=O)(=O)c2ccccc2F)CC1` (stereo not given), the activity change, negative = inhibition is reported as inconclusive: -42.7%.
With `CCCC(NC(=O)CCc1c(C)c2cc3c(-c4ccccc4)coc3cc2oc1=O)C(=O)O` (stereo not given) the activity change, negative = inhibition was inconclusive: -55.9%.
For `CCCCSCCCNC(=S)Nc1ccccc1C`, the activity change, negative = inhibition was inconclusive: -56.6%.
For `CSc1nc(-c2ccc(F)cc2)nc2c1Cc1c(CO)cnc(C)c1O2`, the activity change, negative = inhibition was inactive: 4.76%.
With `COc1cc(NC(=O)c2nnn(CC(=O)Nc3ccccc3)c2N)cc(OC)c1` the activity change, negative = inhibition was inconclusive: -53.5%.
For `O=C1c2ccccc2NC(c2ccccc2O)N1NS(=O)(=O)c1ccccc1` (stereo not given), the activity change, negative = inhibition was inconclusive: -50.2%.
With `COc1ccc(C)cc1N(CC(=O)Nc1cccc(N(C)S(C)(=O)=O)c1)S(C)(=O)=O` the activity change, negative = inhibition was inconclusive: -40.1%.
For `CCc1ccc(OCC(=O)N/N=C\c2ccco2)c([N+](=O)[O-])c1`, the activity change, negative = inhibition was inactive: -35.8%.
With `COc1ccc(CC(=O)Nc2nnc(CC(C)C)s2)cc1S(=O)(=O)N1CCOCC1` the activity change, negative = inhibition was inactive: -17%.
With `CCOc1ccc(C2C(C(=O)c3ccc(C)o3)=C(O)C(=O)N2Cc2cccnc2)cc1` (stereo not given) the activity change, negative = inhibition was inconclusive: -43%.
With `C=CCNC(=S)Nc1ccc(Br)cc1F` the activity change, negative = inhibition was inconclusive: -57%.
For `C=CCN(C(=O)CNS(=O)(=O)c1ccccc1)C(C(=O)NCCOC)c1cccnc1` (stereo not given), the activity change, negative = inhibition was inconclusive: -42.1%.
For `COc1ccc2cc(CN(CC3COCCO3)S(=O)(=O)c3ccc(Cl)cc3)c(=O)[nH]c2c1` (stereo not given), the activity change, negative = inhibition was inconclusive: -45.7%.
For `CCCCn1nc(C(=O)Nc2ccc3c(c2)OCO3)c2ccccc2c1=O`, the activity change, negative = inhibition was inactive: -14%.
For `N#C/C(=C/c1ccc(N2CCOCC2)o1)c1ccc(Br)cc1`, the activity change, negative = inhibition was inactive: 71.8%.
In the case of `COC(=O)c1scc(S(=O)(=O)C(C)C)c1N/N=C(\C#N)C(=O)c1ccc(Cl)cc1`, the activity change, negative = inhibition is reported as inconclusive: -46.1%.
With `Cc1[nH]c2ccccc2c1/C=N/Nc1nncn1N` the activity change, negative = inhibition was active: -63.9%.
In the case of `CC[C@H](OC(C)=O)C(C[C@H](C)N(C)C)(c1ccccc1)c1ccccc1`, the activity change, negative = inhibition is reported as active: -86.5%.
In the case of `COc1ccc(CN(C)Cc2nc3scc(-c4ccccc4)c3c(=O)[nH]2)cc1OC`, the activity change, negative = inhibition is reported as active: -60.1%.
With `CCOC(=O)N1CCN(C(=O)c2oc3ccc(S(=O)(=O)N4CCCCCC4)cc3c2C)CC1` the activity change, negative = inhibition was inconclusive: -59.2%.
